Assay results reported in paper PMC10163288.
The other results are listed elsewhere or left out.

B1: il2ra_site2_2erj_normal_mot_HHH_b2_08028_000000126_0001_18_34_H_._HHH_b2_03584_af2_0001_0001800033_0000001_1 (protein)
chain: SSSSDLEELLEEAERLLEEGDPEEAHRVLSRAFELAYENRDEELAARLAKLFEEIARYEGSSSSS
B2: il2ra_site2_2erj_normal_mot_HHH_b1_04373_af2_000000118_0001_18_33_H_._HHH_b2_07966_af2_0001_0000200008_0000001_0 (protein)
chain: SSSSDTEEEVREVLEEAKEAWEEGDLEQVYRLAVRALRIASENRDEEAQRLVLKWLEELVSSSSS
B3: il2ra_site2_2erj_normal_mot_HHH_b2_06411_000000092_0001_40_56_H_._HHH_b2_06286_0001_0000200009_0000001_0 (protein)
chain: SSSSSDVEEEARELLEEAKELYEEGNLEEVYRLAVEVLRLASRYNNHEVQELLRRVLEEISSSSS
B4: il2ra_site2_3nfp_sap_28_mot_HHH_b1_05437_000000005_0001_40_57_H_._0f396a3c5b789435df01682a1ed80b82_0001_1_af2_0001_0000800020_0000001_0_0001 (protein)
chain: SSSSDEERVEELLEKVEELLKRGNPEEARKALREAAHIAYENNNSELYMKIAEYLFELVQSSSSS
B5: il2ra_site1_3nfp_normal_mot_HHH_b1_04931_000000291_0001_38_56_H_._5fa2c1a30f04debedfe40931e4d0b367_0001_af2_0001_0000700055_0000001_0 (protein)
chain: DVRFLLEAARFAGDELVVEVAEKLEELREEDPDDQEVKELVQKLLQLLAKDPEEAKKLAEELKRR
B6: il2ra_site2_2erj_normal_mot_HHH_b2_03093_af2_000000119_0001_18_34_H_._HHH_b1_04436_af2_0001_0000200013_0000001_0 (protein)
chain: SSSSDEIEELEKRAEELLEKGNPEEALEVLRKAFELAWRNRDFETISKIAELTKEVARRLASSSS
B7: il2ra_site2_2erj_normal_mot_90f6a21de4ed711cb697bb9f61d9c40c_0001_af2_000000135_0001_36_50_H_._HHH_b2_03327_0002_0000300013_0000001_0 (protein)
chain: SSSDREEVAERVVEELVKELGLDEEAQHQLEASARNAIESGFSPESIEWYLRAVAEHLLEQLSSS
B8: il2ra_site1_1z92_sap_27_mot_HHH_b1_04615_af2_000000156_0001_38_52_H_._HHH_b2_08158_0001_0001200051_0000001_0_0001 (protein)
chain: SSSSDRSAEWAFELAKAALRLYERSGDPKARERVEFVIRELEMLGNPELAEELEEILERIDSSSS
B9: il2ra_site1_2b5i_normal_mot_f5ff40796168375b462bec8614a1db4a_0001_1_000000138_0001_53_65_H_._HHH_b2_01747_af2_0001_0000400018_0000001_0_af2pred_dldesign_0_af2pr … (protein)
chain: SSSSMTLEEQVKEYLKKVDELKAQGKLDEAKKLLILARKVARKSGNEELLAEVEAKLKELSSSSS
B10: il2ra_site2_2erj_normal_mot_HHH_b2_01353_af2_000000049_0001_23_39_H_._HHH_b1_04436_af2_0001_0000800048_0000001_0 (protein)
chain: SSSSDEIEELLKEAKELLEKGNPEEADRVLRRASELAFENNDFEIFSEIAELLELVARLEASSSS
B11: il2ra_site2_2erj_normal_mot_HHH_b1_06078_000000236_0001_23_39_H_._HHH_b1_08670_0001_0000200019_0000001_0 (protein)
chain: SSSSNELTRRALEIIEEAFERGLSKEEIQELLEELLEEARELGDEDEVRLIESAIEYLRRLSSSS
B12: il2ra_site2_2erj_sap_25_mot_6ec3e94b46d95805cdcdc10c0c108f03_0001_af2_000000040_0001_36_50_H_._HHH_b1_00647_0001_0000300023_0000001_0_0001 (protein)
chain: SSSSDLREFAEEVVKRLVEELGLDEEQEEALEWAAEAAEEAGLDEELIEKWLRRMAEFLKSSSSS
B13: il2ra_site1_1z92_sap_12_mot_HHH_b2_02540_000000162_0001_1_16_H_._2d5a0e42518f7c0de0c8a0066b0bd8d1_0001_af2_0001_0000100001_0000001_0_0001 (protein)
chain: SSSSSEANEEQLEVAIRSAEIALEAGDPRAARRLLEFLLQQARLDNDEEARRLLEELLEELSSSS
B14: il2ra_site1_1z92_sap_12_mot_HHH_b2_02761_000000226_0001_1_18_H_._HHH_b1_05944_af2_0001_0000100001_0000001_0_0001_af2pred_0001_af2pred (protein)
chain: SSSSDEEAEELLEEVKEKLQELLERGDPEEAQKLANRAFERLLKLGNRELAEELNEFYRKLSSSS
B15: il2ra_site1_1z92_normal_mot_3c291a2f2994a8e029b17f9ec7f22732_0001_af2_000000144_0001_36_50_H_._66959ead3e6c57cb3ef8243f3eb758e0_0001_1_0001_0000100001_0000001_1 … (protein)
chain: STVEEDLREAVEKNDEELLRRFIKLALEDAGDPELVRQYLKILVKKLGLPPEVLERLEELLEELT
B16: il2ra_site1_2b5i_sap_13_mot_HHH_b1_05692_af2_000000143_0001_1_17_H_._HHH_b2_05362_0001_0000300024_0000001_0_0001 (protein)
chain: SSSSSDAAELIVEALLEEAEHIEDEHRRRSILHLALATARHRNNPELEELVEEVAEKLESSSSSS
B17: il2ra_site2_3nfp_normal_mot_HHH_b1_07543_000000150_0001_38_55_H_._HHH_b2_07046_0001_0000100002_0000001_0 (protein)
chain: SSSSDSEEYLRAALALLRRAVEEGDEELAEKHARLLILLAEDKGDEEVLEEARRLLELLNSSSSS
B18: il2ra_site1_3nfp_sap_18_mot_HHH_b1_08274_000000153_0001_43_57_H_._651d3f7ee3e35a0effb0e65a459b730c_0001_1_0001_0000400036_0000001_0_0001_af2pred_0001_af2pred_1_ … (protein)
chain: DAAERAIRRAEELAPPELEELLRRIWELIEENPDDAELLELLAKLIELIRRGNHEEAEELARRVT
B19: il2ra_site1_3nfp_normal_mot_HHH_b1_08274_000000153_0001_43_57_H_._HHH_b2_04752_0001_0000800040_0000001_0 (protein)
chain: SSSSSDVEEEVERLLEEAERLAEEGNQEEALELFEQVFRLIAKLGNPELDRLLFEWVARQSSSSS

target: il2ra, P01589; assay: yeast display titration

Apparent Kd, inactive:
B1 no binding seen
B2 no binding seen
B3 no binding seen
B4 no binding seen
B5 no binding seen
B6 no binding seen
B7 no binding seen
B8 no binding seen
B9 no binding seen
B10 no binding seen
B11 no binding seen
B12 no binding seen
B13 no binding seen
B14 no binding seen
B15 no binding seen
B16 no binding seen
B17 no binding seen
B18 no binding seen
B19 no binding seen

Reprinted at random: 2 entries already listed
Apparent Kd, inactive:
B10 no binding seen
B4 no binding seen
